Test: general procedure: peptide synthesis; 2-chlorotrityl chloride resin (L-55, L-59 only); HATU/DIPEA; EDCI/HOBT
Details: late stage modification step

Point of comparison: “4-((25,85,115)-2-(4-aminobuty1)-18-(2,5-dioxo-2,5-dihydro-1H-pyrrol-1-yl)-8-(hydroxymethyl)-11-isobutyl-4,7,10,13-tetraoxa-3,6,9,12-tetraazaoctadecanoylatnino)benzyl 3-(1-(2-amino-4-((2-hydroxyethyl)(propyl)carbamoyl)-3H-benzo[b]azepin-8-yl)cyclopropane-1-formylamino)-7,8-d”, step yield 5%. Against it:
- 2,5-dioxopyrrolidin-1-yl(S)-1-(3-(1-(2-amino-4-((2-hydroxyethyl)(propyl)carbamoyl)-3H-benzo[b]azepin-8-yl)cyclopropane-1-formylamino)-7,8-dihydro-1,6-naphthyridin-6(5H)-yl)-5-benzyl-1,4,7,10,13-pentaoxo-3,6,9,12-tetraazahexadecan-16-oate — higher, 14%
- (S)-2-amino-8-(1-((6-(5-benzyl-43-(4-(2,5-dioxo-2,5-dihydro-1H-pyrrol-1-yl)phenyl)-4,7,10,13,35,42-hexaoxo-16,19,22,25,28,31-hexaoxa-3,6,9,12,34,41-hexaazattritetracontanacyl)-5,6,7,8-tetrahydro-1,6-naphthyridin-3-yl)carbamoyl)cyclopropyl)-N-(2-hydroxyethyl)-N-propyl-3H-ben — higher, 21%

Reference: patent EP4596536A1 (Shanghai de Novo Pharmatech Co., Ltd., priority 2022, dated 2024)
